Reference: article PMC3143072, “DNA binding activities of the Herves transposase from the mosquito Anopheles gambiae”

Target: T1, Herves transposase (Anopheles gambiae) (UniProt Q5QIT5)
T1 sequence (looked up): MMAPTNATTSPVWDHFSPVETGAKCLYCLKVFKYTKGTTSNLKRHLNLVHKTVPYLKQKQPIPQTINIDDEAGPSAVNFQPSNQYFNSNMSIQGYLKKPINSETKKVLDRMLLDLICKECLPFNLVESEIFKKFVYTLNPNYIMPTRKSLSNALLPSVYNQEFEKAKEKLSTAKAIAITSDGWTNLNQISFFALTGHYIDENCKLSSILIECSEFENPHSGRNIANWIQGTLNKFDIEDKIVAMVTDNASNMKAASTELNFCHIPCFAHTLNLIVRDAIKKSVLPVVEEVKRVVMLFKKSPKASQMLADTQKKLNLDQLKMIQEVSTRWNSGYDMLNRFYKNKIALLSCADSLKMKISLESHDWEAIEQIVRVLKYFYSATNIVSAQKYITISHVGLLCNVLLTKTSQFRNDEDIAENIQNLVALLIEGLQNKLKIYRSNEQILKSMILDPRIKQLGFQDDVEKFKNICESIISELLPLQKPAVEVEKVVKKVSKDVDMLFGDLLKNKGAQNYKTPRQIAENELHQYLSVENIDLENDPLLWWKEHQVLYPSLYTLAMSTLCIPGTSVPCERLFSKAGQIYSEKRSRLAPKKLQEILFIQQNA
Assay: competition with a labelled probe
Details: vs (CGATTCAT)4 probe, EMSA: 16 mM Tris pH 8.0, 150 mM NaCl, 1 mM DTT, 0.25% Triton X, 0.2 ug BSA, 0.4 ug T3 ss oligo, 0.5 ug poly(dI-dC), 4 C, 100 nM DNA, 850 nM transposase, recombinant protein, residues 1-603, protein details: His tag (pBAD myc/HisA vector)

Sequence	binding result (partial)	binding result (did not compete fully, weak)
CGATTCACCGATTCACCGATTCACCGATTCAC (double strand) [(CGATTCAC)4]	binds more weakly	
CGTTCATCGTTCATCGTTCATCGTTCAT (double strand) [(CGTTCAT)4]		binds more weakly

Weaker means in comparison with the reference protein, sequence or condition of that experiment. Protein sequences can lack the tags named with them.
